# Results: PubChem BioAssay AID1508600 (Functional Genomics Laboratory (NCATS/FGL), 2020)
# In all, about 53,000 sequences went through this assay and about 3,700 (7%) were called active.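 Rule for the calls: active = gene knockdowns whose robust z-score for IL-1 alpha signal is at least 2 or at most -2, so actives lie on both sides; inactive = the rest.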 Some of the results follow.
# Experiment: Components of the Cytosolic LPS Sensing Pathway: Gene Identification via Genome-wide siRNA Screen;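 note: robust z of the log signal after scaling to non-targeting control siRNA wells of the plate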
# Settings: RAW264.7 macrophages, IL-1a HTRF, actives lie on both sides, screened at 100 nM (by protocol), cells primed 5 h with Pam3CSK4 first
# Procedure, shortened: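 Cells (RAW264.7, 1×10^4 per well) were transfected with siRNA at 100 nM and cultured 48h at 37 degrees C. Pam3CSK4 was added for 5 hours; LipidA transfection followed for 24 hour. IL-1a was then measured by HTRF.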
row,Sequence,z-score
1,GCUAUUCGAAUUCAUGCAUTT against Xpo1,inactive: -0.388
2,CCUCCAUCGUAUUUGACAUTT against Slc29a4,inactive: 1.46
3,CGUCACUGGUGGUAUCAACTT against Trcg1,inactive: 0.783
4,GGCAAAGAGCAAAAUUUUATT against Rap2b,inactive: 1.66
5,GGUUAAAGUCCUUCAGUAUTT against Tubb3,active: 2.83
6,UAGGCGGGAAGGCAUUUUCTT against Gngt1,inactive: 0.572
7,CGCCCACCAGAAUAUAUAUTT against Il4i1,inactive: -1.69
8,GGAAAUAGAAACAACAGGATT against Nos2,inactive: -0.756
9,GGUGCAAAUAAACAACAGATT against Zfpl1,inactive: -1.92
10,GGAAGAAAACACUUGGUUUTT against Cant1,inactive: -0.704
11,GGGUCAGUGUGGAGAGUACTT against Col13a1,inactive: 0.679
12,GGAAGCAGAAUUGUAAAGATT against Hrk,inactive: -1.09
13,GCGUGUACAAGGCUAUUCATT against Stk4,inactive: 1.19
14,GGUUGAUCGUGUCAUGUAGTT against Poc1b,inactive: 0.0595
15,GCACAGCUCAACGAAUUGGTT against Otp,inactive: 0.149
16,GAUGUCGAUGCAAAUUCAATT against Fxyd1,inactive: 0.514
17,GGUUUUCUUAAAAUAGGAGTT against Tat,inactive: -0.205
18,GGCACACGGUUUUCAUUAATT against Pcdhb5,inactive: 0.83
19,GGGUCAUGUUUUUAAGAAGTT against Frrs1,inactive: -1.28
20,GGAGGUGAGUAGUAUAGAATT against Pigr,inactive: 0.998
21,GCUCUUCCAACCACCUGUATT against Rtn4rl2,inactive: -1.7
22,GGUUGUUUUGCACAAAUGUTT against Olfr512,inactive: -1.49

row,Sequence,z-score
1,GGAAAAGGUGGAAAAGAUATT against Rell1,inactive: 0.238
2,GCAUUCAGACCAUGACACUTT against Trim30d,inactive: 0.914
3,GGCUGACAGACAAGAUUGUTT against Tfb1m,inactive: -1.3
4,GGCAGACAGUGAGAUGACATT against Mapk12,inactive: -0.896
5,CGCGAAUAAACCAUUUCUGTT against A130023I24Rik,inactive: 1.02
6,GGUCUACAACCAAAUCUGCTT against Clec7a,inactive: -0.531
7,GGUUCGUAAAGUAAAUGAGTT against Lmbrd2,inactive: -1.16
8,GCUCUCGGAAUGAUUUAUATT against Acss1,inactive: 1.14
9,GGUAGUGAAAUUCUUAAAGTT against Snx10,inactive: -0.154
10,GGUUGUGGUGUACAAGAUUTT against Med18,inactive: -0.791
11,GGCAUGUGCUACUUACAUGTT against Ripk1,inactive: -0.33
12,GGAGACACUUACAUGCACGTT against Antxr1,inactive: 1.27
13,CGGACAAUGCAGGUUCAUCTT against Negr1,inactive: -0.0643
14,GGUAUCUUGCUUUCUGUGATT against Olfr847,inactive: -1.64
15,GGUAUUCUGGCAAGACCACTT against Aatf,inactive: 1.31
16,GGGAAGUAUUCUGAAAUCUTT against Tsga13,inactive: -0.0173
17,GAUUCAGCCAUGUGGAACATT against Aim2,inactive: -1.31
18,GGUAAUACAACUGAGAACUTT against Zfp2,inactive: 0.39
19,GCUGGUAAAGGUUACGAAGTT against Crk,inactive: 0.505
20,GGGAACCUUGCUUUUUACATT against Olfr1141,inactive: 0.171
21,GCACCAUUAAGGUUGCCAATT against Nudt11,inactive: -1.16
22,GGAGAGUCAAGUCUUUUCUTT against Dnal4,inactive: 0.0546

row,Sequence,z-score
1,GGACUUCUUACUGGAAUCATT against Slc5a12,inactive: 0.944
2,GGGUAAAAGGCUUUUUUGUTT against St8sia6,inactive: -0.699
3,GGAUCGCUGGUGUGUUUUUTT against Nalcn,inactive: 0.205
4,GGAACGCAAGAACAGAAUGTT against Rps24,inactive: 0.585
5,GGGCAAACCGGAAAAACAGTT against Ccdc71,active: -2.06
6,CCAAACAAUCUUACAGGAATT against Olfr248,inactive: 0.236
7,GACCAUCCUACUACUUAUGTT against Vmn1r25,inactive: 1.06
8,CCUCCCUGUCUAUUGUGCUTT against Slc35a2,inactive: 1.04
9,GGCACUCAAAUUCUACACCTT against Wasf2,inactive: -1.63
10,GGUGAUUCCAUUACCUAGUTT against Pde12,inactive: 0.572
11,GCUUAUUUUCGAUACAUGGTT against Ddx42,inactive: -0.374
12,GGGAAAAAUGUCUCAAACATT against Pnpla8,inactive: -0.974
13,CGGCCUGUACAGUCACUUATT against Zmynd12,inactive: 1.11
14,GGACUGGACGACAAUUAGGTT against Brms1l,inactive: -0.345
15,CCUUAUUUGUCCAUAAAAGTT against Pkdrej,active: 2.43
16,CCGUCCCUAUGAAAUCAGCTT against Lrat,active: 2.28
17,GGAUCUGUACCAUAGUGACTT against Lhfp,inactive: 1.94
18,GGACUUUUUCACUUUCAAATT against Ugt1a5,inactive: -0.198
19,GGCAAACUCUUCCGAUGCUTT against Zfp414,inactive: 0.688
20,GGAGAGAAGAGCAGAAAGATT against Nosip,inactive: -0.799
21,GGCCAUAUCAUUCUUCAUUTT against Tbx18,inactive: 0.177
22,GGGUAAGUAUUGAACUCAUTT against Slc10a1,inactive: 1.06

# For reference, some entries already given:
row,Sequence,z-score
7,GACCAUCCUACUACUUAUGTT against Vmn1r25,inactive: 1.06
8,CCUCCCUGUCUAUUGUGCUTT against Slc35a2,inactive: 1.04
9,GGCACUCAAAUUCUACACCTT against Wasf2,inactive: -1.63
10,GGUGAUUCCAUUACCUAGUTT against Pde12,inactive: 0.572

# Remaining list, next part:

row,Sequence,z-score
1,GCUGCCUCUCACCAAGUAUTT against Creb3l3,inactive: -1.43
2,GGCUCUGGCAGAAAUGGAUTT against Pex26,inactive: -0.0204
3,GGAAGAAGAAAGUGUUAAATT against Ythdf2,inactive: -0.337
4,GGAGGUGUUCAAAGACAACTT against Traf5,inactive: 0.553
5,GGAUGAUCAAGCAGAGUUUTT against Dctn2,inactive: 0.405
6,GGACGCAAGUACAAAUUUATT against Tnxb,inactive: 1.13
7,CGUACUAUAUCAAAGAACATT against Ro60,inactive: 0.889
8,GCACUUUAAGAUCAACCGGTT against Bcar3,inactive: 0.521
9,GGAUGCUGAUGGAUUCUCUTT against Caskin2,inactive: -0.73
10,GCAUUCAGGACCUGUGGCUTT against Olfr890,active: -2.33
11,GGGAAUCUAUUGAUGGGAUTT against Sardh,inactive: -0.635
12,CCUCUCACCUCAAACGGAUTT against Btnl2,inactive: 0.89
13,GGAACAGGUUCAUUCAUUGTT against Nup160,inactive: -0.99
14,GGUGGUUGUCAUGACAGUCTT against Tcerg1l,inactive: -1.69
15,GGAUUUCCAGGUUAUUUUCTT against Csn2,inactive: -0.423
16,GGCUUAUGAGAACUUGGUGTT against Amot,inactive: -0.896
17,GGAGGACUAUAACUAAGAGTT against Ifitm5,inactive: 0.342
18,GGAAAUAAAGUGAAUGAGGTT against Gtpbp4,inactive: -1.22
19,GCCCACGUCCUGGUUUAAUTT against 4632404H12Rik,inactive: 0.482
20,GCAAAGUCUAAACUUAGUCTT against Fchsd2,inactive: 0.441
21,GCGCAAAUCUCUCUGUUCUTT against Krt35,inactive: 1.23
22,GGCCUCAGAAAAGGAUCGATT against Olfr1500,inactive: 0.163

row,Sequence,z-score
1,GGUGGAAAGAUUAUCUUCATT against Dmc1,inactive: -0.63
2,GGAGGAGUGAGUCCUGAGATT against Ifna13,inactive: -0.0708
3,CCUAGUGGCUAUACAAAUATT against Rgn,inactive: 0.234
4,GGUUCAGAAUUUAACCUUATT against Phc3,active: 3
5,GGAAAGAAACUUUACUGAGTT against Olfr1437,inactive: 0.0613
6,GGUCUCACUGCUAAUAAAGTT against Cutal,inactive: 0.637
7,CCUUAGCUAGAGAAAGUUATT against Gtpbp10,inactive: -1.06
8,GGAAUGUGAGCUCAGAUGGTT against Arvcf,inactive: -0.262
9,GCUGAUAACCUGAUCAACGTT against Nars,inactive: 0.0406
10,GCUGAGGUAUUCAUUAUAGTT against Prss45,inactive: 1.01
11,GGCACCAAGCUCGAUGAUGTT against Sh3gl2,inactive: -1.41
12,GGAGAAACUUUUGUCUUCCTT against Slc44a4,inactive: -1.04
13,GGCUUUCUUUGACUGUCUCTT against Rdh16,inactive: -1.17
14,GCCCGAGACCAUGGUUUGUTT against Zfyve21,inactive: 1.68
15,GGCCUACCAUUUCUUUAUATT against Wdr35,inactive: 0.773
16,GGGAUGUGAGGGAAUUAACTT against B4galt3,inactive: -1.03
17,GGCUACGUGUCAAUAGACATT against Cyth2,inactive: -1.52
18,GGUACAUCAGCAACUUCGATT against Dus1l,inactive: -0.482
19,GGAUACAGGAGGAAGAAAATT against Alpk3,inactive: -0.371

# Reprinted at random: 2 records from the list.
row,Sequence,z-score
7,CCUUAGCUAGAGAAAGUUATT against Gtpbp10,inactive: -1.06
19,GGAUACAGGAGGAAGAAAATT against Alpk3,inactive: -0.371
